US11078222B2, “Hydroxybenzoic acid derivatives, methods and uses thereof” (UNiVERSIDADE DO PORTO, priority 2016, dated 2021)
Some results were stated once for a whole list of compounds, not compound by compound. Some ranges recur; such a range may be that of the whole group of compounds.

Assays:
[1] = Redox potential by differential pulse and cyclic voltammetry, glassy carbon electrode; format: physicochemical; conditions: physiological pH 7.4
Protocol: In an embodiment, the oxidative behaviour of the parent antioxidants (protocatechuic and gallic acids) and AntiOxBENs was evaluated at physiological pH 7.4, by differential pulse and cyclic voltammetry, using a glassy carbon working electrode. […] For pyrogallol derivatives (gallic acid, AntiOxBEN2, AntiOxBEN3), a significant decrease in redox potentials was observed (Ep=0.163-0.168 V) (Table 1).
In an embodiment, the electrochemical analytical data was obtained using a computer controlled potentiostat Autolab PGSTAT302N (Metrohm Autolab, Utrecht, Netherlands). Generally, cyclic voltammetry (CV) data was acquired at a scan rate of 50 mVs^−1. Differential pulse voltammetry (DPV) results were acquired at a step potential of 4 mV, pulse amplitude of 50 mV and scan rate of 8 mVs^−1. The electrochemical signals were monitored by the General Purpose Electrochemical System (GPES) version 4.9, software package. All electrochemical experiments were performed at room temperature in an electrochemical cell that was placed in a Faraday cage in order to minimize the contribution of background noise to the analytical signal.
In an embodiment, the process of evaluation of AntiOxBENs redox properties was conducted as follows: stock solutions of each compound (10 mM) were prepared by dissolving the appropriate amount in ethanol. […]

[2] = Iron (II) chelation, ferrozine assay; format: biochemical; conditions: compound 100 μM, EDTA=100%
Protocol: In an embodiment, the iron (II) chelation capacity of the novel AntiOxBENs was evaluated by the ferrozine assay using EDTA (ethylenediaminetetracetic acid) as reference. The iron chelating properties of protocatechuic and gallic acids, and MitoQ, a mitochondriotropic antioxidant, were also evaluated (FIG. 2).
In an embodiment, AntiOxBENs iron chelating properties were evaluated by the spectrophotometric ferrozine method performed in a multiplate reader (Powerwave XS Microplate Reader) of Bio-Tech instruments.
In an embodiment, the AntiOxBENs iron chelating properties were evaluated as follows: in each well, a solution of the test compound (100 μM) and ammonium iron (II) sulphate in ammonium acetate (20 μM) were added, incubated for 10 min and the absorbance was read at 562 nm. Then, a freshly prepared solution of ferrozine (5 mM) was added to each well (96 μM final concentration). After a new incubation at 37° C. for 10 min period, the absorbance of [Fe(ferrozine)3]^2+ complex was measured at 562 nm. Blank wells were run using DMSO instead of the test compounds. EDTA was used as a reference. All compounds were tested at a final concentration of 100 μM. The absorbance of the first reading was subtracted to the final values to abolish any absorbance due to the test compounds.

## O=C(O)c1cc(O)c(O)c(O)c1 [Gallic acid]
[1]; listed as gallic acid
  Ep (redox potential): 0.163-0.168 V

## O=C(CCCCC[P+](c1ccccc1)(c1ccccc1)c1ccccc1)NCCCCCCNC(=O)c1cc(O)c(O)c(O)c1.[Br-] [AntiOxBEN3, [5-(6-(3,4,5-trihydroxybenzamido)hexylamino)carbonylpentyl]triphenylphosphonium bromide]
[1]
  Ep (redox potential): 0.163-0.168 V
[2]
  chelation of the total iron present in solution: more than 80%
